At least one compound was matched to its structure with a doubt left.
Test system: cocaine-induced CPP in male SD rats
Assay type: in vivo, Sprague Dawley rats
Details: cocaine 10 mg/kg IP
Protocol: Animals: Male Sprague Dawley rats (Envigo, IN, 275-299 g) were group housed upon arrival (2 per cage). All rats were examined and handled to assure adequate health and suitability. During the study, a 12/12 light/dark cycle was maintained (lights switched on at 7:00 am). The room temperature was maintained between […] and 23° C. with a relative humidity maintained around 50%. Chow (LabDiet #5001) and water were provided ad libitum for the duration of the study. The test was performed during the animal's light cycle phase.
Cocaine (10 mg/kg) was dissolved in saline and injected IP at a dose volume of 1 ml/kg. Cocaine was administered on training days 3, 5, 7 and 9 immediately prior to training.
3-((2-Methyl-4-thiazolyl)ethynyl)pyridine (MTEP, 3 mg/kg), was dissolved in saline and injected IP on day 10 (bias test) at a dose volume of 1 ml/kg 30 minutes prior to testing. […]
Testing sessions were recorded on days 1 and 10 to determine time spent (seconds) in each chamber. […]
Day 10 Post-conditioning bias test: Animals are dosed once with either saline, MTEP or Compound 1 (1, 3 and 10 mg/kg) according to their assigned. […] Their activity exploring the chamber is recorded for analysis.
Statistical Analysis: Statistical analysis was conducted using GraphPad Prism 9. Scorers blinded to the treatment groups scored the amount of time each animal spent exploring each chamber on days 1 and 10. […]

`COC(=O)[C@H]1[C@@H](OC(=O)c2ccccc2)C[C@@H]2CC[C@H]1N2C` [Cocaine] was tested, and the “induction of conditioned place preference vs Saline-Saline group” value was “effectively induced CPP”.
